Assay results published in PMC13393275.

T1: FRS2-mNeonGreen (human) (UniProt Q8WU20)
T1 sequence: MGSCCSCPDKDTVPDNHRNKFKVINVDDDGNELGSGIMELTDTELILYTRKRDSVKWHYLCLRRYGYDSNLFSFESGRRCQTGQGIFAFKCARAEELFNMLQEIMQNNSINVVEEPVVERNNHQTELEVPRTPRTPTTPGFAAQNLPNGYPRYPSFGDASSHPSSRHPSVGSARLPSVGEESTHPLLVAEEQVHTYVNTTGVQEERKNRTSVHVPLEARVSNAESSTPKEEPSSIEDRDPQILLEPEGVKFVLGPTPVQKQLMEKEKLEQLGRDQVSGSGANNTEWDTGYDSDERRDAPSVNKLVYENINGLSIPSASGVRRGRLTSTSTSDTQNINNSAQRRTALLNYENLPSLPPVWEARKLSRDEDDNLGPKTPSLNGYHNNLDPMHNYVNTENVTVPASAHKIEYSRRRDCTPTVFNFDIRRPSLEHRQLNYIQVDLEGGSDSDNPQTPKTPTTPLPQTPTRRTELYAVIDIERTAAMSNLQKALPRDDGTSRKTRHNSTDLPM


What follows are binders tested against T1, FRS2-mNeonGreen (human) (assay: affinity purification with mass spectrometry; mNeonGreen-Trap IP from bFGF-stimulated (50 ng/mL, 5 min) UW228 FRS2-mNG cells against UW228 WT; on-bead digestion, DIA LC-MS/MS, SAINTexpress; hits log2FC >= 1 and bFDR <= 0.05; n = 3).

| Binder | binding |
| --- | --- |
| Cystathionine beta-synthase (protein, UniProt P35520 1-551) MPSETPQAEVGPTGCPHRSGPHSAKGSLEKGSPEDKEAKEPLWIRPDAPSRCTWQLGRPASESPHHHTAPAKSPKILPDILKKIGDTPMVRINKIGKKFGLKCELLAKCEFFNAGGSVKDRISLRMIEDAERDGTLKPGDTIIEPTSGNTGIGLALAAAVRGYRCIIVMPEKMSSEKVDVLRALGAEIVRTPTNARFDSPESHVGVAWRLKNEIPNSHILDQYRNASNPLAHYDTTADEILQQCDGKLDMLVASVGTGGTITGIARKLKEKCPGCRIIGVDPEGSILAEPEELNQTEQTTYEVEGIGYDFIPTVLDRTVVDKWFKSNDEEAFTFARMLIAQEGLLCGGSAGSTVAVAVKAAQELQEGQRCVVILPDSVRNYMTKFLSDRWMLQKGFLKEEDLTEKKPWWWHLRVQELGLSAPLTVLPTITCGHTIEILREKGFDQAPVVDEAGVILGMVTLGNMLSSLLAGKVQPSDQVGKVIYKQFKQIRLTDTLGRLSHILEMDHFALVVHEQIQYHSTGKSSQRQMVFGVVTAIDLLNFVAAQERDQK | binds |
| Argininosuccinate synthase (protein, UniProt P00966 1-412) MSSKGSVVLAYSGGLDTSCILVWLKEQGYDVIAYLANIGQKEDFEEARKKALKLGAKKVFIEDVSREFVEEFIWPAIQSSALYEDRYLLGTSLARPCIARKQVEIAQREGAKYVSHGATGKGNDQVRFELSCYSLAPQIKVIAPWRMPEFYNRFKGRNDLMEYAKQHGIPIPVTPKNPWSMDENLMHISYEAGILENPKNQAPPGLYTKTQDPAKAPNTPDILEIEFKKGVPVKVTNVKDGTTHQTSLELFMYLNEVAGKHGVGRIDIVENRFIGMKSRGIYETPAGTILYHAHLDIEAFTMDREVRKIKQGLGLKFAELVYTGFWHSPECEFVRHCIAKSQERVEGKVQVSVLKGQVYILGRESPLSLYNEELVSMNVQGDYEPTDATGFININSLRLKEYHRLQSKVTAK | binds |
| Anion exchange protein 2 (protein, UniProt P04920 1-1241) MSSAPRRPAKGADSFCTPEPESLGPGTPGFPEQEEDELHRTLGVERFEEILQEAGSRGGEEPGRSYGEEDFEYHRQSSHHIHHPLSTHLPPDARRRKTPQGPGRKPRRRPGASPTGETPTIEEGEEDEDEASEAEGARALTQPSPVSTPSSVQFFLQEDDSADRKAERTSPSSPAPLPHQEATPRASKGAQAGTQVEEAEAEAVAVASGTAGGDDGGASGRPLPKAQPGHRSYNLQERRRIGSMTGAEQALLPRVPTDEIEAQTLATADLDLMKSHRFEDVPGVRRHLVRKNAKGSTQSGREGREPGPTPRARPRAPHKPHEVFVELNELLLDKNQEPQWRETARWIKFEEDVEEETERWGKPHVASLSFRSLLELRRTLAHGAVLLDLDQQTLPGVAHQVVEQMVISDQIKAEDRANVLRALLLKHSHPSDEKDFSFPRNISAGSLGSLLGHHHGQGAESDPHVTEPLMGGVPETRLEVERERELPPPAPPAGITRSKSKHELKLLEKIPENAEATVVLVGCVEFLSRPTMAFVRLREAVELDAVLEVPVPVRFLFLLLGPSSANMDYHEIGRSISTLMSDKQFHEAAYLADEREDLLTAINAFLDCSVVLPPSEVQGEELLRSVAHFQRQMLKKREEQGRLLPTGAGLEPKSAQDKALLQMVEAAGAAEDDPLRRTGRPFGGLIRDVRRRYPHYLSDFRDALDPQCLAAVIFIYFAALSPAITFGGLLGEKTQDLIGVSELIMSTALQGVVFCLLGAQPLLVIGFSGPLLVFEEAFFSFCSSNHLEYLVGRVWIGFWLVFLALLMVALEGSFLVRFVSRFTQEIFAFLISLIFIYETFYKLVKIFQEHPLHGCSASNSSEVDGGENMTWAGARPTLGPGNRSLAGQSGQGKPRGQPNTALLSLVLMAGTFFIAFFLRKFKNSRFFPGRIRRVIGDFGVPIAILIMVLVDYSIEDTYTQKLSVPSGFSVTAPEKRGWVINPLGEKSPFPVWMMVASLLPAILVFILIFMETQITTLIISKKERMLQKGSGFHLDLLLIVAMGGICALFGLPWLAAATVRSVTHANALTVMSKAVAPGDKPKIQEVKEQRVTGLLVALLVGLSIVIGDLLRQIPLAVLFGIFLYMGVTSLNGIQFYERLHLLLMPPKHHPDVTYVKKVRTLRMHLFTALQLLCLALLWAVMSTAASLAFPFILILTVPLRMVVLTRIFTDREMKCLDANEAEPVFDEREGVDEYNEMPMPV | binds |

The remaining lines, values ahead:

| binding | Binder |
| --- | --- |
| binds | Eukaryotic translation initiation factor 5B (protein, UniProt O60841 1-1220) MGKKQKNKSEDSTKDDIDLDALAAEIEGAGAAKEQEPQKSKGKKKKEKKKQDFDEDDILKELEELSLEAQGIKADRETVAVKPTENNEEEFTSKDKKKKGQKGKKQSFDDNDSEELEDKDSKSKKTAKPKVEMYSGSDDDDDFNKLPKKAKGKAQKSNKKWDGSEEDEDNSKKIKERSRINSSGESGDESDEFLQSRKGQKKNQKNKPGPNIESGNEDDDASFKIKTVAQKKAEKKERERKKRDEEKAKLRKLKEKEELETGKKDQSKQKESQRKFEEETVKSKVTVDTGVIPASEEKAETPTAAEDDNEGDKKKKDKKKKKGEKEEKEKEKKKGPSKATVKAMQEALAKLKEEEERQKREEEERIKRLEELEAKRKEEERLEQEKRERKKQKEKERKERLKKEGKLLTKSQREARARAEATLKLLQAQGVEVPSKDSLPKKRPIYEDKKRKKIPQQLESKEVSESMELCAAVEVMEQGVPEKEETPPPVEPEEEEDTEDAGLDDWEAMASDEETEKVEGNKVHIEVKENPEEEEEEEEEEEEDEESEEEEEEEGESEGSEGDEEDEKVSDEKDSGKTLDKKPSKEMSSDSEYDSDDDRTKEERAYDKAKRRIEKRRLEHSKNVNTEKLRAPIICVLGHVDTGKTKILDKLRHTHVQDGEAGGITQQIGATNVPLEAINEQTKMIKNFDRENVRIPGMLIIDTPGHESFSNLRNRGSSLCDIAILVVDIMHGLEPQTIESINLLKSKKCPFIVALNKIDRLYDWKKSPDSDVAATLKKQKKNTKDEFEERAKAIIVEFAQQGLNAALFYENKDPRTFVSLVPTSAHTGDGMGSLIYLLVELTQTMLSKRLAHCEELRAQVMEVKALPGMGTTIDVILINGRLKEGDTIIVPGVEGPIVTQIRGLLLPPPMKELRVKNQYEKHKEVEAAQGVKILGKDLEKTLAGLPLLVAYKEDEIPVLKDELIHELKQTLNAIKLEEKGVYVQASTLGSLEALLEFLKTSEVPYAGINIGPVHKKDVMKASVMLEHDPQYAVILAFDVRIERDAQEMADSLGVRIFSAEIIYHLFDAFTKYRQDYKKQKQEEFKHIAVFPCKIKILPQYIFNSRDPIVMGVTVEAGQVKQGTPMCVPSKNFVDIGIVTSIEINHKQVDVAKKGQEVCVKIEPIPGESPKMFGRHFEATDILVSKISRQSIDALKDWFRDEMQKSDWQLIVELKKVFEII |
| binds | Phosphoserine aminotransferase (protein, UniProt Q9Y617 1-370) MDAPRQVVNFGPGPAKLPHSVLLEIQKELLDYKGVGISVLEMSHRSSDFAKIINNTENLVRELLAVPDNYKVIFLQGGGCGQFSAVPLNLIGLKAGRCADYVVTGAWSAKAAEEAKKFGTINIVHPKLGSYTKIPDPSTWNLNPDASYVYYCANETVHGVEFDFIPDVKGAVLVCDMSSNFLSKPVDVSKFGVIFAGAQKNVGSAGVTVVIVRDDLLGFALRECPSVLEYKVQAGNSSLYNTPPCFSIYVMGLVLEWIKNNGGAAAMEKLSSIKSQTIYEIIDNSQGFYVCPVEPQNRSKMNIPFRIGNAKGDDALEKRFLDKALELNMLSLKGHRSVGGIRASLYNAVTIEDVQKLAAFMKKFLEMHQL |

No constants are given. Whether binding was seen depends on the method and setting. In cells and extracts the contact can be indirect. These calls come from enrichment with a bait or labelling near it, and not all partners need be listed.
